Values of other authors, collected in patent US9321751B2, “Piperine derivatives and uses thereof” (INDUSTRY-ACADEMIC COOPERATION FOUNDATION, YONSEI UNIVERSITY, priority 2012, dated 2016).
At least one compound was matched to its structure with a doubt left.

Test system: Swiss albino mice
Conditions: piperine 100 mg/kg body weight once a day for 4 weeks before benzo[α]pyrene 50 mg/kg twice a week for 16 weeks; cited from earlier work

**Q.** For O=C(/C=C/C=C/c1ccc2c(c1)OCO2)N1CCCCC1 [piperine, Piperine], which “antioxidant indexes (SOD, CAT, GPX, GSH, vitamin E, vitamin C) in the tissues” value is on record?
**A.** significantly high values
